Measurements reported in patent US11951155B2, “Pea-derived peptide with muscle-building effect and preparation method thereof, and drug and use” (Zhongshi Duqing(Shandong) Biotech Co., Ltd, priority 2022, dated 2024).
“And” between values parts separate entries of the source, which are not always exact repeats. Identical values can stand only once. Part of at least one peptide drawing is inferred or uncertain, most often the ends. Ends that are not written are not given here.

Key:
C2C12 cells = assay: C2C12 cell proliferation assay (CCK-8, OD at 450 nm); type: cell-based; conditions: for cell concentration compared with CN group: 0.4 μg/ml; for OD value, Average value / OD value, Repeated three groups: sample 0.4 μg/ml, OD 450 nm; for OD value, Repeated three groups: single replicates
Method: The C2C12 cells in a logarithmic growth phase were inoculated into a 96-well plate; the cells were divided into 4 groups, namely a blank control group (CN, without any peptide fractions), a pea-derived peptide S1 group, a pea-derived peptide S2 group, and a pea-derived peptide S3 group; each treatment group was set to duplicate 3 wells, with approximately 1,000 cells per well. Except for the blank control group, 0.4 μg/ml pea-derived peptide was added to the cells, and 10 μL of a CCK-8 solution was added separately at 0 h, 12 h, 24 h, 36 h, and 48 h, and mixed well; the cells were incubated in a CO2 incubator at 37° C. for 2 h, an OD value was measured using a microplate reader at 450 nm, and a cell proliferation curve was drawn.
The C2C12 cells in a logarithmic growth phase were inoculated into a 96-well plate; the cells were divided into 6 groups, namely a blank control group (CN, without any peptide fractions), and sample groups including a pea-derived peptide PP1 group (PP1), a pea-derived peptide PP2 group (PP2), a pea-derived peptide PP3 group (PP3), a pea-derived peptide PP4 group (PP4), and a pea-derived peptide PP5 group (PP5). Each treatment group was set to 3 duplicate wells, with approximately 1,000 cells per well. A sample having a concentration of 0.4 μg/ml was added to the cells of the sample groups, and 10 μL of a CCK-8 solution was added separately at 0 h, 12 h, 24 h, 36 h, and 48 h, and mixed well; the cells were incubated in a CO2 incubator at 37° C. for 2 h, an OD value was measured using a microplate reader at 450 nm, and a cell proliferation curve was drawn.

[1] = tested on: IGF-1R, cyclinD1, CDK6, p-AMPK in C2C12 cells; assay: Western blot of growth and proliferation-related proteins in C2C12 cells; type: cell-based
Text: The C2C12 cells in a logarithmic growth phase were inoculated into a 6-well plate at 1×10^6; the cells were divided into 6 groups, namely a blank control group (CN), and sample groups including a pea-derived peptide PP1 group (PP1), a pea-derived peptide PP2 group (PP2), a pea-derived peptide PP3 group (PP3), a pea-derived peptide PP4 group (PP4), and a pea-derived peptide PP5 group (PP5). Each treatment group was set to duplicate 3 wells, with approximately 1,000,000 cells per well; a sample having a concentration of 0.4 μg/ml was added to the cells of the sample groups, and each treatment group was set to 3 duplicate wells. After co-incubating for 24 h, the cells in different treatment groups were collected, fully lysed, and a total protein was extracted, and a protein concentration was determined using a nucleic acid protein analyzer. The protein sample was mixed with a loading buffer thoroughly, denatured at 100° C. for 10 min, and subjected to SDS-PAGE gel electrophoresis. The program included: 80 V for 30 min; 100 V for 80 min. Membrane transfer was conducted, where the membrane transfer procedure was conducted at 100 V for 90 min. After transferring, the sample was placed in a 5% skimmed milk powder, and sealed in a shaker at room temperature for 1 h. GAPDH antibody (1:2000) and PCNA antibody, AMPK antibody, p-AMPK antibody, IGF-1 antibody (1:1000) were added separately, and allowed to stand at 4° C. overnight. A secondary antibody (1:20000) was added, and incubated at room temperature for 1 h. The membrane was washed 3 times with TBST, and a Pierce-enhanced luminescent agent was added, and exposure was conducted by an automatic exposure machine.

[2] = tested on: forelimb gripping strength; assay: Forelimb gripping strength of mice after 8 weeks of resistance exercise; type: in vivo, C57 mice
testosterone = assay: Serum testosterone by ELISA; type: in vivo, C57 mice; conditions: mice serum, daily gavage, 8 weeks
IGF-1 = assay: Serum IGF-1 by ELISA; type: in vivo, C57 mice; conditions: mice serum, daily gavage, 8 weeks
IGFBP-3 = assay: Serum IGFBP-3 by ELISA; type: in vivo, C57 mice; conditions: mice, after 8 weeks of resistance exercise training
[3] = tested on: ATPase in mitochondria of rectus femoris tissue; assay: ATPase activity in skeletal muscle mitochondria; type: in vivo, C57 mice; conditions: mice, daily gavage, 8 weeks
IGF-1R = assay: Western blot of IGF/IGF-1R signaling pathway in mouse muscle; type: in vivo, C57 mice; conditions: group D against group A
[4] = C2C12 cells, 0.4 μg/ml, 24 h, western blot
[5] = daily gavage, 8 weeks resistance exercise, in words

LDLPVL [PP2, Leu-Asp-Leu-Pro-Val-Leu]
cell concentration compared with CN group (C2C12 cells; co-incubated 24 h or 36 h): increases significantly
cell concentration compared with CN group (C2C12 cells; co-incubated 48 h): increases significantly
OD value, Average value (C2C12 cells; treatment time 0 h): 0.33
OD value, Repeated three groups (C2C12 cells; treatment time 0 h): 0.41 and 0.24 and 0.33
OD value, Average value (C2C12 cells; treatment time 12 h): 0.49
OD value, Repeated three groups (C2C12 cells; treatment time 12 h): 0.49 and 0.6 and 0.37
OD value, Average value (C2C12 cells; treatment time 24 h): 1.66
OD value, Repeated three groups (C2C12 cells; treatment time 24 h): 1.57 and 1.78 and 1.62
OD value, Average value (C2C12 cells; treatment time 36 h): 2.14
OD value, Repeated three groups (C2C12 cells; treatment time 36 h): 2.31 and 2.14 and 1.98
OD value, Average value (C2C12 cells; treatment time 48 h): 2.34
OD value, Repeated three groups (C2C12 cells; treatment time 48 h): 2.39 and 2.07 and 2.56
activation of the growth signaling pathway p-AMPK/IGF-1/IGF-1R compared to control group (CN) [1, 4]: more significantly enhances the activation
expression of key regulatory proteins CyclinD1 and CDK6 [1, 4]: significantly up-regulates the expression
expression of IGF-1R, cyclinD1, CDK6 and p-AMPK ([1]; skeletal muscle cells treated with one peptide alone): significantly increase expression
Initial grip strength ([2]; before the experiment (baseline)): 149.2 ± 15.4 g
grip strength 8 weeks after ([2]; daily gavage (group B 0.4, group C 1.0, group D 0.1 g/kg body weight), 8 weeks resistance exercise): 292.6 ± 35.4 g
forelimb gripping strength compared with normal control group (group A) [2, 5]: significantly improve the forelimb gripping strength
forelimb gripping strength effect compared with groups C and B [2, 5]: effect better than those in the muscle-building protein powder group
testosterone level compared with muscle-building powder (testosterone): significantly higher than that in mice intaking the muscle-building powder
testosterone level compared with the control group (testosterone): significantly increase the testosterone levels
IGF-1 increase compared with muscle-building protein powder group (group C) (IGF-1): increase higher than that in the muscle-building protein powder group
content of IGF-1 in peripheral blood compared with the control group (IGF-1): significantly increase the content of IGF-1
level of IGFBP-3 in peripheral blood compared with muscle-building protein powder group (Group C) (IGFBP-3): also lower than that in the muscle-building protein powder group
level of IGFBP-3 in peripheral blood compared with normal control group (Group A) (IGFBP-3): significantly lower than that in the normal control group
ATP hydrolase activity compared with muscle-building protein powder group (group C) [3]: also higher than that in the muscle-building protein powder group
ATP hydrolase activity in skeletal muscle mitochondria compared with the control group [3]: significantly increase ATP hydrolase activity
expression of IGF-1R compared with the control group (IGF-1R): significantly increased
